# Data source: PubChem BioAssay AID504786 (Drosophila RNAi Screening Center, 2011)
# Assay: 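Knock-downs reducing HIF reporter induction by the iron chelator DFO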 (primary screen)
# Cells: Drosophila S2 cells with a stable HIF luciferase reporter
# Knock-down reagent: long dsRNA against Drosophila genes, about 0.2 µg dsRNA per well of a 384-well plate
# Duration: three days of knock-down, then 20 h of DFO before reading
# Challenge: desferrioxamine (DFO) at 100 µM, an iron chelator that mimics hypoxia, for 20 h
# Measured: 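HIF reporter luminescence in cells given 100 µM DFO for 20 h, using the mouse ldh-a hypoxia-response element, scored as per-plate z-scores; higher means greater loss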
# Scale: z-score: higher = stronger loss of HIF reporter signal
# The screen tested about 21,000 reagents; this is a random part of those with a known target gene and a result. 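Primary screen; positive scores mean lost reporter signal, so the sign may be inverted from the usual convention.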 Names joined by + are all predicted targets of the reagent. Reagent sequences are not shown.
target,dsRNA,"z-score, replicate 1","z-score, replicate 2","z-score, replicate 3","z-score, replicate 4"
ppk16,DRSC02736,-0.4,-0.1,,
topi,DRSC16431,-0.5,-1,,
CG15715,DRSC10216,0,0.2,,
veli,DRSC16276,-0.4,-0.3,,
KdelR,DRSC03353,-0.1,0.1,,
CG2061,DRSC19348,-0.2,-0.2,,
CG31296,DRSC13092,-0.2,-0.1,,
holn1,DRSC02827,-0.3,-0.8,,
CG7011,DRSC09347,-0.6,-0.3,,
CG13795,DRSC02299,-0.2,-0.1,,
cyc,DRSC11337,-0.3,0.1,,
CG13041,DRSC09922,-0.2,-0.8,,
CG18766,DRSC15936,-0.3,-0.4,,
CG1394,DRSC19539,0,-0.8,,
Ugt36D1,DRSC02600,-0.2,-0.2,,
Rac1,DRSC08688,0.6,1.1,,
Rab18,DRSC18702,-0.4,-0.7,,
ZnT33D,DRSC02591,-0.1,-0.3,,
CG12546,DRSC11676,0.3,0.1,,
Tim17a1,DRSC14184,-0.4,-0.8,,
dpr3,DRSC00395,-0.1,0.1,,
dpr3,DRSC00396,0,0.7,,
CR14117,DRSC10121,-0.3,-0.1,,
Pgm1,DRSC10490,-0.3,-0.5,,
Gar1,DRSC04441,0.3,0.6,,
CG31915,DRSC03000,-0.2,-0.4,,
Jhedup,DRSC07173,-0.2,-0.3,,
CG11251,DRSC09825,-0.2,-0.2,,
jdp,DRSC16975,-0.3,-0.1,,
CG3594,DRSC04393,-0.1,0.2,,
htk,DRSC20029,,3.7,,
htk,DRSC20031,-0.1,0.5,,
PolrMT,DRSC00660,2.4,1,,
dtn,DRSC17939,-0.3,-0.5,,
cal1,DRSC15725,0,-0.2,,
Cyp6v1,DRSC20565,-0.4,-0.5,,
ida,DRSC08163,0,2.1,,
Ilk,DRSC11868,0.4,-0.1,,
CG3528,DRSC00611,-0.2,0.9,,
ATPsyndelta,DRSC18248,1.1,1.1,,
CG17806,DRSC15276,-0.3,-0.6,,
CG8389,DRSC07158,-0.3,-0.7,,
Mocs2A + Mocs2B,DRSC13697,0.6,-0.3,,
Mocs2A + Mocs2B,DRSC14219,-0.3,-0.5,,
Cog6,DRSC06806,-0.4,-0.2,,
CG42758,DRSC10021,-0.3,0.3,,
gammaCOP,DRSC16955,-0.3,1.8,,
Buffy,DRSC05957,-0.5,0,,
wun,DRSC07719,-0.4,-0.6,,
CG18536,DRSC06763,-0.2,-0.6,,
Pgant4,DRSC00717,-0.3,-0.5,,
CYLD,DRSC02870,0,0.2,,
Hs3st-A,DRSC06507,-0.2,0.1,,
Hs3st-A,DRSC06508,-0.5,0.1,,
Hs3st-A,DRSC06509,-0.1,0.2,,
CG32055,DRSC10666,-0.2,-0.3,,

An excerpt from above, reduced to “z-score, replicate 1”:
Tim17a1 [DRSC14184]: -0.4
dpr3 [DRSC00395]: -0.1
dpr3 [DRSC00396]: 0
CR14117 [DRSC10121]: -0.3
Pgm1 [DRSC10490]: -0.3
Gar1 [DRSC04441]: 0.3
CG31915 [DRSC03000]: -0.2
Jhedup [DRSC07173]: -0.2

The list goes on.
target,dsRNA,"z-score, replicate 1","z-score, replicate 2","z-score, replicate 3","z-score, replicate 4"
Peritrophin-A,DRSC20570,-0.3,-0.7,,
Syx5,DRSC03432,-0.5,1.7,,
CG15478,DRSC18057,-0.1,0,,
Claspin,DRSC08308,0.9,0,,
Cyp4ac1,DRSC03302,-0.3,-0.5,,
Nop17l,DRSC06556,-0.4,-0.3,,
CG41020 (retired record),DRSC20866,0,0,,
CG12607,DRSC08287,-0.3,-0.2,,
Gale,DRSC08234,-0.2,0.2,,
CG8042,DRSC09676,-0.4,-0.5,,
mora,DRSC16594,-0.4,-0.4,,
ND-B14.7,DRSC04544,0.7,0.8,,
CG33307,DRSC01349,0.8,0.4,,
CG13000,DRSC19519,0.3,0.1,,
Cdk8,DRSC11113,-0.1,0.9,,
Cdc7,DRSC18428,-0.3,-0.1,,
Cdc7,DRSC18429,-0.3,0.2,,
Gadd45,DRSC06033,-0.3,-0.4,,
conv,DRSC07213,-0.3,-0.3,,
CG11523,DRSC11669,-0.4,-0.6,,
CG3347,DRSC00597,-0.1,-0.4,,
CG5693,DRSC02878,-0.3,-0.3,,
RabGGTb,DRSC00804,-0.4,-0.4,,
nrv3,DRSC03097,0.3,-0.4,,
CG1529,DRSC20515,-0.1,-0.9,0,-0.3
CG10332 (retired record) + IM18,DRSC04064,-0.2,-0.2,,
ogre,DRSC18809,-0.4,-0.5,,
CG4409,DRSC06869,-0.2,-0.2,,
Cyp4ac3,DRSC03304,-0.3,-0.7,,
CG42694,DRSC03955,-0.6,-0.2,,
CG7778,DRSC03067,-0.3,-0.2,,
Lis-1,DRSC07459,-0.4,-0.5,,
LSm7,DRSC02251,-0.1,0.2,,
CG9389,DRSC11857,-0.1,-0.1,,
ND-15,DRSC00311,0.1,0.4,,
Hmgcr,DRSC16704,1.5,-0.2,,
Edg91,DRSC16657,-0.3,0.1,,
CG14931,DRSC02413,-0.1,-0.2,,
Magi,DRSC04247,-0.2,-0.3,,
Magi,DRSC04451,0.2,0.2,,
Nup93-2,DRSC16221,0,-0.2,,
vlc,DRSC04922,-0.1,-0.3,,
CG9184,DRSC08636,-0.3,-0.1,1.1,0.5
CG12728,DRSC17883,-0.3,-0.4,,
DhpD,DRSC12288,-0.3,-0.3,,
CG9706,DRSC11095,-0.2,0,,
CG14505,DRSC06476,-0.3,-0.7,,
fuss,DRSC17200,-0.4,-0.6,,
Phae1,DRSC02554,-0.2,-0.8,,
CG15322,DRSC20680,-0.9,-1.3,,
